PubChem BioAssay AID1224827, NIAID | 2016

- Test: 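Confirm genes whose knock-down changes LPS-driven TNF promoter activity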 (follow-up of hits)
- Cell system: RAW264.7 G9 mouse macrophage reporter clone
- Knock-down reagent: single siRNA against mouse genes, 100 nM siRNA
- Timing: siRNA for 2 days, then LPS about 16 h
- Conditions: bacterial lipopolysaccharide (LPS), 10 ng/ml, cells fixed after overnight (about 16 h) stimulation
- Detection: 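Imaged nuclear TNF reporter intensity, background removed, scaled per plate and to non-targeting control wells, as z-scores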
- Reading the numbers: TNF reporter z-score, mean and TNF reporter z-score: higher = stronger Tnf promoter reporter signal; gene median z, three same-vendor siRNAs: higher = stronger Tnf reporter signal for the gene
- Hit rule: 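An siRNA is called active when its mean z-score over replicates is at least +2 or at most -2; control wells get no call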
This is one part, drawn at random, of about 3,800 reagents. Of all reagents, about 2,200 (57%) are marked active. 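Active means a strong reporter change in either direction; calls are per siRNA, not per gene; qiagen siRNAs gave weaker effects.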 A number with no mark means an inactive call. The numbers tell different reagents against one gene apart. No sequences are given here.

target | reagent no. | TNF reporter z-score, mean | gene median z, three same-vendor siRNAs | TNF reporter z-score, repeat 1 | TNF reporter z-score, repeat 2
Sdk1 (sidekick cell adhesion molecule 1) | 1 | -1.94 | -4.08 | -1.69 | -2.19
Sdk1 (sidekick cell adhesion molecule 1) | 2 | -4.23 (active) | -4.08 | -4.85 | -3.61
Sdk1 (sidekick cell adhesion molecule 1) | 3 | -4.76 (active) | -4.08 | -4.55 | -4.97
Sdk1 (sidekick cell adhesion molecule 1) | 4 | 2.56 (active) | -1.21 | 4.83 | 0.286
Sdk1 (sidekick cell adhesion molecule 1) | 5 | -1.08 | -1.21 | 0.56 | -2.71
Sdk1 (sidekick cell adhesion molecule 1) | 6 | -4.24 (active) | -1.21 | -3.92 | -4.56
Cimip2b (ciliary microtubule inner protein 2B) | 1 | -3.17 (active) | -3.55 | -3.29 | -3.05
Cimip2b (ciliary microtubule inner protein 2B) | 2 | -3.82 (active) | -3.55 | -3.65 | -3.99
Cimip2b (ciliary microtubule inner protein 2B) | 3 | -4.75 (active) | -3.55 | -3.46 | -6.05
Cimip2b (ciliary microtubule inner protein 2B) | 4 | 1.34 | 0.62 | 2.82 | -0.14
Cimip2b (ciliary microtubule inner protein 2B) | 5 | 0.62 | 0.62 | 0.561 | 0.678
Cimip2b (ciliary microtubule inner protein 2B) | 6 | -0.0358 | 0.62 | 0.984 | -1.06
Fam53a (family with sequence similarity 53, member A) | 1 | 2.25 (active) | -3.06 | 1.1 | 3.39
Fam53a (family with sequence similarity 53, member A) | 2 | -3.45 (active) | -3.06 | -4.29 | -2.61
Fam53a (family with sequence similarity 53, member A) | 3 | -3.57 (active) | -3.06 | -3.5 | -3.63
Fam53a (family with sequence similarity 53, member A) | 4 | 3.29 (active) | -2.35 | 6.91 | -0.337
Fam53a (family with sequence similarity 53, member A) | 5 | -2.35 (active) | -2.35 | -2.14 | -2.56
Fam53a (family with sequence similarity 53, member A) | 6 | -3.09 (active) | -2.35 | -3.61 | -2.56
LOC269472 (retired record) | 1 | 2.55 (active) | 2.5 | 4.43 | 0.656
LOC269472 (retired record) | 2 | 2.34 (active) | 2.5 | 4.42 | 0.253
LOC269472 (retired record) | 3 | 2.23 (active) | 2.5 | 4.35 | 0.112
Taar5 (trace amine-associated receptor 5) | 1 | 0.173 | -1.94 | 2.37 | -2.02
Taar5 (trace amine-associated receptor 5) | 2 | -1.75 | -1.94 | -1.64 | -1.86
Taar5 (trace amine-associated receptor 5) | 3 | -4.95 (active) | -1.94 | -4.5 | -5.4
Taar5 (trace amine-associated receptor 5) | 4 | -1.21 | -2.4 | -0.444 | -1.98
Taar5 (trace amine-associated receptor 5) | 5 | -2.4 (active) | -2.4 | -2.29 | -2.5
Taar5 (trace amine-associated receptor 5) | 6 | -4.04 (active) | -2.4 | -4.36 | -3.72

A few values from the entries so far.
For “TNF reporter z-score, repeat 2”, LOC269472 (retired record) #3 has 0.112 (active)
For “TNF reporter z-score, repeat 1”, Taar5 (trace amine-associated receptor 5) #1 has 2.37
Value for Cimip2b (ciliary microtubule inner protein 2B) #3 under “gene median z, three same-vendor siRNAs”: -3.55 (active)
